According to article PMC12548414:
The whole screen tested about 1,600 compounds, of which about 20 (1%) showed an effect of 50% or more. The list shows a part of the results.

Test system: T1, E. coli pLC1021 (luc-trpAt trans-translation reporter)
T1 construct: pLC1021 luc-trpAt reporter strain
Set-up: species or system Escherichia coli pLC1021; luc-trpAt non-stop luciferase reporter; luminescence rises when trans-translation is inhibited; normalized to KKL-35 and DMSO
Conditions: reporter signal, KKL-35 = 100%; rise means trans-translation inhibition; 2 h, 20 µM
Method: The luciferase screen was performed as previously described ([16]). […] 48 µL of cells was transferred to white 96-well plates, and 2 µL DMSO or 20 µM compound, or 20 µM KKL-35 was added. Plates were sealed with adhesive film, vortexed gently to mix, and incubated at room temperature for 2 h. 50 µL Bright-Glo reagent (Promega, Madison, WI) was added to each well, and the plates were sealed with adhesive film, vortexed vigorously, and incubated for an additional 10 min at room temperature. Luminescence was measured at 560 nm using a SpectraMax i3 microplate reader and readings for each plate were normalized to the average of three KKL-35-treated wells (positive control) and three DMSO-treated wells (negative control) within the plate to correct for plate-to-plate and day-to-day variations. Results from at least two biological repeats were averaged, and GraphPad Prism was used to plot the data. We screened a library of 1,601 anti-tubercular small molecules for their ability to inhibit trans-translation using a luciferase reporter in Escherichia coli. In this luc-trpAt reporter, the firefly luciferase gene has a trpA transcriptional terminator before the stop codon, such that luciferase is translated from a non-stop mRNA ([16]). When trans-translation is active, the luciferase will be tagged and degraded, but when trans-translation is inhibited, active luciferase will accumulate, resulting in a luminescent signal when luciferin is added. Luciferase activity was measured after growth in the presence of compounds from the library at 20 µM, using the known trans-translation inhibitor KKL-35 as a positive control (Fig. 1A) ([16], [17]). Compounds with activity one standard deviation above the median were scored as positive (Fig. S1 and Table S1).

Compound	% activation [%]
O=C(Nc1nc2c(s1)CCCC2)c1ccc(Br)s1 [KKL-0575]	0
CCCC(=O)N1CCN(c2ccc(NC(=O)c3ccc([N+](=O)[O-])o3)cc2)CC1 [KKL-1656]	0
Oc1cccc2ccc(/C=C/c3cccc(F)c3)nc12 [KKL-1464]	18
CC(C)=CCN1CCN(CCC2=C(C)CCCC2(C)C)CC1CCO (stereo not drawn) [KKL-1079]	4
COc1ccccc1C(=O)NNC(=S)NC(=O)c1cccs1 [KKL-0062]	45
COC(=O)c1cccc(NC(=S)NC[C@H]2C[C@@H]3CCN2C[C@@H]3c2cc(-c3ccc4ccccc4c3)nn2C)c1 [KKL-1596]	71
O=[N+]([O-])c1cc(S(=O)(=O)C(F)(F)F)ccc1Sc1nc2ccccc2s1 [KKL-0960]	0
O=C(CSc1nnc(CNc2cccc(Cl)c2)o1)OC1CCCCC1 [KKL-1642]	3
N=c1c2c(-c3ccccc3)c(-c3ccccc3)n(Cc3ccco3)c2ncn1Cc1ccco1 [KKL-1381]	0
CN(C)c1ccc(Nc2nc(-c3ccc(O)cc3O)cs2)cc1 [KKL-1352]	0
O=C(Oc1c(Cl)cc(Cl)c2cccnc12)c1ccc([N+](=O)[O-])cc1 [KKL-0754]	96
Cc1cc(NC(=O)C2CCCCC2)n(-c2nc3ccccc3[nH]2)n1 [KKL-0795]	9
O=c1c2ccccc2[nH]c(=S)n1CCCN1CCN(c2cccc(Cl)c2)CC1 [KKL-1390]	0
OC(CN1CCNCC1)Cn1c2ccc(Cl)cc2c2cc(Cl)ccc21 (stereo not drawn) [KKL-0542]	0
COc1cc(CNCc2ccccn2)ccc1OCc1ccc(Cl)c(Cl)c1 [KKL-0354]	0
CSc1ccc(-c2nnc(NC(=O)c3ccc(Cl)s3)o2)cc1 [KKL-1706]	50
CCCOc1ccc(Nc2cc(C)nc3ccc(Cl)cc23)cc1 [KKL-0742]	0
Cc1cc(C)cc(OCCCON2C(=N)N=C(N)NC2(C)C)c1 [KKL-1675]	13
COc1ccc(NC(=O)CC23CC4CC(CC(C4)C2)C3)cc1Cl [KKL-0753]	3
CN(CCC12CC3CC(CC(C3)C1)C2)Cc1nc(COc2ccccc2)no1 [KKL-1178]	0
O=C(NC[C@H]1C[C@@H]2CCN1C[C@@H]2CN1CCC(Cc2ccccc2)CC1)c1ccc(C(F)(F)F)cc1 [KKL-0307]	0

Compound	% activation [%]
O=C(CCNc1ccc(Cl)c(C(F)(F)F)c1)c1cccs1 [KKL-0437]	0
O=C(NCc1ccc(Oc2ccccc2)cc1)c1c(C(F)(F)F)nc2ccccn12 [KKL-1852]	3
O=C(O)c1cn(-c2ccc(N3CCCC3)c(F)c2)c2c(F)c(F)c(F)cc2c1=O [KKL-1114]	3
COc1cc2c(cc1NC(=O)Nc1ccc(Cl)cc1)oc1ccccc12 [KKL-0402]	5
O=C(Nc1ccc(F)cc1)NC1CCCCCCC1 [KKL-1335]	0
COc1ccc(OCC(=O)Nc2cccc(Cl)c2)cc1 [KKL-0787]	0
COc1ccccc1C1(O)CCN(CC(O)c2ccc3ccccc3c2)CC1 (stereo not drawn) [KKL-0688]	3
c1ccc(Nc2nc(-c3ccccn3)cs2)cc1 [KKL-1622]	0
C=CCn1c(-c2cccs2)nc2ccccc21 [KKL-1438]	0
Cc1nc2ccc(C(=O)OCc3nnc(-c4ccccc4)o3)cc2nc1C [KKL-1299]	0
O=C(Nc1ccc(Cl)c(C(F)(F)F)c1)c1csc2c1CCCC2 [KKL-1448]	2
CCN(CC)c1ccc(-c2nn3c(-c4n[nH]c5c4CCC5)nnc3s2)cc1 [KKL-1714]	1
CC(C)(c1ccccc1)c1ccc(OCC(O)CNC2CCN(Cc3ccccc3)CC2)cc1 (stereo not drawn) [KKL-0808]	0
CC(=O)Nc1ccc(Nc2cc(C(C)C)nc3c(-c4ccccc4)c(C)nn23)cc1 [KKL-0882]	0
CCCOC(=O)CSc1nnc(-c2ccc(OC)cc2)o1 [KKL-1228]	7
Cc1c(CNC(=O)c2cnn3c2NC(c2ccc(Br)cc2)CC3C(F)(F)F)cnn1C (stereo not drawn) [KKL-0964]	10
COC(=O)[C@@H](NC(=O)c1nc(N2CCCC2)nc2c1CCCC2)c1ccccc1 [KKL-1145]	0
COc1cc(NC(=O)c2ccc3c(c2)OCCO3)ccc1NC(=O)c1ccccc1Cl [KKL-1054]	3
Cc1ccc(-c2nn(-c3cccc(F)c3)cc2CNCc2[nH]nc3c2CCCCC3)o1 [KKL-0656]	0
CN1CCN(c2cc(-c3ccc(F)cc3)nc(-c3ccncc3)n2)CC1 [KKL-1844]	0
Cc1c(C)n(C2CCCC2)c2ncnc(OC3CCN(C(=O)C(C)c4ccccc4)CC3)c12 (stereo not drawn) [KKL-0506]	0

26 entries from above, arranged by molecular weight, ascending:
Compound	% activation [%]
C=CCn1c(-c2cccs2)nc2ccccc21 [KKL-1438]	0
O=C(Nc1ccc(F)cc1)NC1CCCCCCC1 [KKL-1335]	0
COc1ccc(OCC(=O)Nc2cccc(Cl)c2)cc1 [KKL-0787]	0
CCCOC(=O)CSc1nnc(-c2ccc(OC)cc2)o1 [KKL-1228]	7
Cc1cc(C)cc(OCCCON2C(=N)N=C(N)NC2(C)C)c1 [KKL-1675]	13
CCCOc1ccc(Nc2cc(C)nc3ccc(Cl)cc23)cc1 [KKL-0742]	0
COc1ccc(NC(=O)CC23CC4CC(CC(C4)C2)C3)cc1Cl [KKL-0753]	3
CN1CCN(c2cc(-c3ccc(F)cc3)nc(-c3ccncc3)n2)CC1 [KKL-1844]	0
CSc1ccc(-c2nnc(NC(=O)c3ccc(Cl)s3)o2)cc1 [KKL-1706]	50
Cc1nc2ccc(C(=O)OCc3nnc(-c4ccccc4)o3)cc2nc1C [KKL-1299]	0
COc1cc2c(cc1NC(=O)Nc1ccc(Cl)cc1)oc1ccccc12 [KKL-0402]	5
COc1ccccc1C1(O)CCN(CC(O)c2ccc3ccccc3c2)CC1 (stereo not drawn) [KKL-0688]	3
OC(CN1CCNCC1)Cn1c2ccc(Cl)cc2c2cc(Cl)ccc21 (stereo not drawn) [KKL-0542]	0
CCN(CC)c1ccc(-c2nn3c(-c4n[nH]c5c4CCC5)nnc3s2)cc1 [KKL-1714]	1
CN(CCC12CC3CC(CC(C3)C1)C2)Cc1nc(COc2ccccc2)no1 [KKL-1178]	0
COC(=O)[C@@H](NC(=O)c1nc(N2CCCC2)nc2c1CCCC2)c1ccccc1 [KKL-1145]	0
CC(=O)Nc1ccc(Nc2cc(C(C)C)nc3c(-c4ccccc4)c(C)nn23)cc1 [KKL-0882]	0
COc1cc(CNCc2ccccn2)ccc1OCc1ccc(Cl)c(Cl)c1 [KKL-0354]	0
O=C(O)c1cn(-c2ccc(N3CCCC3)c(F)c2)c2c(F)c(F)c(F)cc2c1=O [KKL-1114]	3
O=C(NCc1ccc(Oc2ccccc2)cc1)c1c(C(F)(F)F)nc2ccccn12 [KKL-1852]	3
Cc1ccc(-c2nn(-c3cccc(F)c3)cc2CNCc2[nH]nc3c2CCCCC3)o1 [KKL-0656]	0
COc1cc(NC(=O)c2ccc3c(c2)OCCO3)ccc1NC(=O)c1ccccc1Cl [KKL-1054]	3
Cc1c(C)n(C2CCCC2)c2ncnc(OC3CCN(C(=O)C(C)c4ccccc4)CC3)c12 (stereo not drawn) [KKL-0506]	0
CC(C)(c1ccccc1)c1ccc(OCC(O)CNC2CCN(Cc3ccccc3)CC2)cc1 (stereo not drawn) [KKL-0808]	0
Cc1c(CNC(=O)c2cnn3c2NC(c2ccc(Br)cc2)CC3C(F)(F)F)cnn1C (stereo not drawn) [KKL-0964]	10
O=C(NC[C@H]1C[C@@H]2CCN1C[C@@H]2CN1CCC(Cc2ccccc2)CC1)c1ccc(C(F)(F)F)cc1 [KKL-0307]	0

(more compounds)

Compound	% activation [%]
Clc1ccc(OCc2ccccc2Cl)c(CNC2CCCCC2)c1 [KKL-1221]	0
Cc1ccc(Nc2ccccc2N)cc1 [KKL-0834]	0
CCOC(=O)CCNC(=O)c1cc(COc2cc(C)c(Cl)c(C)c2)on1 [KKL-1113]	0
c1ccc(CN2CCCC3(C2)NCCc2c3[nH]c3ccccc23)cc1 (stereo not drawn) [KKL-0700]	0
Cc1c(OC(C)C)ccc2c(-c3ccccc3)cc(=O)oc12 [KKL-1226]	1
CCSc1nnc(NC(=O)c2ccc3ccccc3n2)s1 [KKL-0809]	5
O=C(Oc1cccc2cccnc12)c1ccc(Cl)c(S(=O)(=O)N2CCOCC2)c1 [KKL-1082]	4
O=C(Nc1nc(NC(=O)c2ccco2)n(-c2ccccc2)n1)c1ccccc1 [KKL-1005, N-(5-benzamido-2-phenyl-1,2,4-triazol-3-yl)furan-2-carboxamide]	44
Cc1ccc(NC(=O)c2ccc(OCC(=O)OC3CCCCC3)cc2)cc1 [KKL-1469]	11
O=C(c1cc(=O)c2ccccc2o1)N1CCc2c([nH]c3ccccc23)C1c1ccccc1F (stereo not drawn) [KKL-0623]	0
CC(=O)c1ccc(NC(=O)Nc2cc(OCC(F)(F)F)cc(OCC(F)(F)C(F)F)c2)cc1 [KKL-1332]	0
O=C(c1cnn(C(=O)c2ccco2)c1)c1cc(F)ccc1O [KKL-1685]	3
Cc1cccc(-c2ccc(NC(=O)C3CCN(C(=O)CCc4cnn(C)c4)CC3)cc2)c1 [KKL-1170]	0
Cc1ccc2nc(Cl)c(CNCc3cccs3)cc2c1 [KKL-1741]	0
Cc1ccc(NC(=O)C23CC4CCC(CC(C4)C2)C3)cc1 [KKL-1401]	0
O=C(Oc1c(Cl)cc(Cl)c2cccnc12)c1ccccc1[N+](=O)[O-] [KKL-1418]	90
CCc1ccc(OCC(=O)Nc2ccc(N3CCN(C(=O)c4cccs4)CC3)c(Cl)c2)cc1 [KKL-0752]	0
CN(C)c1ccc(CNC23CC4CC(CC(C4)C2)C3)cc1 [KKL-0764]	0
c1ccc2c(NC3C4CC5CC(C4)CC3C5)nc(N3CCOCC3)nc2c1 (stereo not drawn) [KKL-0361]	0
CSc1cccc(C(=O)Nc2nc(-c3ccccn3)cs2)c1 [KKL-1683]	10
COCCCNC1=NN=C(c2cc(C)n(-c3ccccc3F)c2C)CS1 [KKL-0798]	0

Compound	% activation [%]
OCC#CCSc1nnc(-c2cccc3ccccc23)o1 [KKL-1198]	1
COc1cccc(-c2ccccc2NC(=O)C2CCN(Cc3ccc(OC)c(C)c3)CC2)c1 [KKL-1151]	0
Cc1cccc(-c2cccc(NC(=O)C3CCCN(C4CCSCC4)C3)c2)c1 (stereo not drawn) [KKL-1159]	2
CCOC(=O)c1cc(-c2ccccc2)sc1N=C(S)NC1CCN(Cc2ccccc2)CC1 [KKL-1339]	0
C=C(C)[C@@H]1CC=C(CN2CCC(O)(Cc3cc(-c4cccc(OC)c4)no3)CC2)CC1 [KKL-0638]	1
CCC(=O)N1CCc2c([nH]c3ccccc23)C12CCN(Cc1ccccc1)CC2 [KKL-1236]	1
Cc1ccc2c(C)nc(Nc3nc(O)c4ccccc4n3)nc2c1 [KKL-0675]	1
O=C(c1ccco1)N(CCCn1ccnc1)c1nc2c(Cl)cccc2s1 [KKL-1707]	0
O=C(Nc1nnc(-c2ccc(Cl)s2)o1)c1ccc(Cl)s1 [KKL-1762]	0
O=C(CSc1nnc(-c2cccs2)o1)OC1CCCCC1 [KKL-1655]	0
CCn1nc(C)cc1C(=O)N1CCc2c([nH]c3ccccc23)C1c1cc(F)ccc1F (stereo not drawn) [KKL-1183]	0
Cc1ccc(C2CC(C(F)(F)F)n3ncc(C(=O)NCc4ccc5c(c4)OCO5)c3N2)cc1 (stereo not drawn) [KKL-1825]	0
Cc1nc(C)c(-c2csc(Nc3ccc(Br)cc3)n2)s1 [KKL-0325]	0
COc1ccc2[nH]c(CN3CCc4c([nH]c5ccccc45)C3C)cc2c1 (stereo not drawn) [KKL-0517]	5
COc1ccc2[nH]c(CN(CCCn3ccnc3)Cc3ccc(F)cc3)c(C)c2c1 [KKL-1041]	16
CC(=O)CC1(OC(C)=O)C(=O)N(C)c2ccccc21 (stereo not drawn) [KKL-1624]	0
COc1ccc(NC(=O)N2CCCC(C(=O)c3cc(F)ccc3OC)C2)cc1Cl (stereo not drawn) [KKL-0481]	0
CC(C)CC(O)C1CCN(c2nncc(-c3cccc(F)c3)n2)CC1 (stereo not drawn) [KKL-1161]	0
N#Cc1cc2c(nc1SCC(=O)OCc1ccccc1)CCC2 [KKL-0607]	0
CN(C)c1ccc(Nc2ncnc3ccc(Br)cc23)cc1 [KKL-1044]	0
Cn1c(=O)c2c([S+](C)[O-])snc2n(C)c1=O (stereo not drawn) [KKL-1817]	0
